The list shows a part of the results. Residues, ends and D or L forms follow the SMILES beside them. *: point of attachment. Cbz = O=C(OCc1ccccc1)*
How the values were obtained:
Experiment in all cases: log2 fold change, soluble protein after heating vs DMSO (PISA); higher = thermal stabilisation; K562 cells, 10 uM, 30 min; active = over 0.2 and 3.5 SD of the protein, either way, in both replicates (recomputed)
IRAK-1-4 Inhibitor I = compound: C1COCCN1CCN2C3=CC=CC=C3N=C2NC(=O)C4=CC(=CC=C4)[N+](=O)[O-] [IRAK-1-4 Inhibitor I]
How it was run: (§1)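 Values are thermal stability changes relative to control samples and are taken from duplicates. They are stated as log2 fold changes. Before quantification by TMTpro 16plex LC-MS/MS with equalised channel sums, K562 cells at 2×10^6 cells/mL were treated with 10 μM compound for 30 min, heated in aliquots for 3 min across 48°C-58°C, pooled, extracted in PBS with 0.5% NP-40 at 4°C, and centrifuged at 21,000xg for 90 min to give the soluble supernatant.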

Amino acid sequences for entries named in this document (tags omitted). A change or cut given only in a name is not applied to a line headed by its entry.
UniProt P28482, whole entry, looked up: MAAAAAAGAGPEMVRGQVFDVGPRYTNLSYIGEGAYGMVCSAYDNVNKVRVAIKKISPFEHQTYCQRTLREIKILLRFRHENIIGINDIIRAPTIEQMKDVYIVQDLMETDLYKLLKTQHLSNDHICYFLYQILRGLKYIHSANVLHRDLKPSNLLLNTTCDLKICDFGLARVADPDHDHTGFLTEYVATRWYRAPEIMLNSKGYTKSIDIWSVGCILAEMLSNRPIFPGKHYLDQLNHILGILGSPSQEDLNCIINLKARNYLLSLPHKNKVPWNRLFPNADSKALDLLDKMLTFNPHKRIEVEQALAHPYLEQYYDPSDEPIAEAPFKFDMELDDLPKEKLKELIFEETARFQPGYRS
UniProt P27361, whole entry, looked up: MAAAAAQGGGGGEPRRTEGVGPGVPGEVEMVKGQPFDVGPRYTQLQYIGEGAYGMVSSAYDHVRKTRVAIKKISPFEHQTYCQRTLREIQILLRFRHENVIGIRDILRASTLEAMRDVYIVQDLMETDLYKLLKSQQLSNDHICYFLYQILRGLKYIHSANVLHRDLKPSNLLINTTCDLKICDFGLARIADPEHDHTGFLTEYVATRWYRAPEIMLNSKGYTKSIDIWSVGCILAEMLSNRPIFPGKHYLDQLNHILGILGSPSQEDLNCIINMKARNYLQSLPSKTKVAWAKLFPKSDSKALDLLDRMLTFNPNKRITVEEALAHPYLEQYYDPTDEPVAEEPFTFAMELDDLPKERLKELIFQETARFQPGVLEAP
UniProt Q9NTJ4: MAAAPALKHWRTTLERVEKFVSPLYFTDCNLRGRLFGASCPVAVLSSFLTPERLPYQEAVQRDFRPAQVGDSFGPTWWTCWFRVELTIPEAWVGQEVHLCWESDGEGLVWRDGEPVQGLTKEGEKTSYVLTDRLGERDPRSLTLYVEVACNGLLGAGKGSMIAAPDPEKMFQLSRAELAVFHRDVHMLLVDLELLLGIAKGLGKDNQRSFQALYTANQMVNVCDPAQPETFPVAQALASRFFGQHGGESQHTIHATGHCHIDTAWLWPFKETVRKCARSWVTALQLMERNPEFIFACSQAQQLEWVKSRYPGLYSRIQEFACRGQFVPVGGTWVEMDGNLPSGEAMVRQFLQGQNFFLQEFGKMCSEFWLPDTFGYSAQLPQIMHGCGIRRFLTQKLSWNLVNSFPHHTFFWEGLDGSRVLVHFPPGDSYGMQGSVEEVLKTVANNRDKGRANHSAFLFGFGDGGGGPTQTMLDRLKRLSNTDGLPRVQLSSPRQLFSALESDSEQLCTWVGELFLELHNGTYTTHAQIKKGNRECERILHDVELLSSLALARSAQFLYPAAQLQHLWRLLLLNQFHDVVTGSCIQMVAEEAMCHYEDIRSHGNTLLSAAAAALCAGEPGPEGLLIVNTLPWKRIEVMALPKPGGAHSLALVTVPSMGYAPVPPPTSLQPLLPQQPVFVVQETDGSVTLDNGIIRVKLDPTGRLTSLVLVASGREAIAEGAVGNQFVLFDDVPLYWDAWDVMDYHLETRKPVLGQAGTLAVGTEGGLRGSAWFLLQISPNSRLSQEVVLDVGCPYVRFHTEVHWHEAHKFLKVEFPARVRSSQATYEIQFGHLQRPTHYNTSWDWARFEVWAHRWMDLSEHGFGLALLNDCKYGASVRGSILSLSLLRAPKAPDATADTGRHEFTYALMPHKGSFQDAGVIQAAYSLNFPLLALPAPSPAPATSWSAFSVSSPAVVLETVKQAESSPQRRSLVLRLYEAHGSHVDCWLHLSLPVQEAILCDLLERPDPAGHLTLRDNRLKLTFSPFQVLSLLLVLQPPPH
UniProt Q9UK45: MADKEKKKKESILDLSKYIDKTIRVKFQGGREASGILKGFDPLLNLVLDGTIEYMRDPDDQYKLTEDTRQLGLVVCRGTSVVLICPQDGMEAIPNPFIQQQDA
UniProt Q9Y608: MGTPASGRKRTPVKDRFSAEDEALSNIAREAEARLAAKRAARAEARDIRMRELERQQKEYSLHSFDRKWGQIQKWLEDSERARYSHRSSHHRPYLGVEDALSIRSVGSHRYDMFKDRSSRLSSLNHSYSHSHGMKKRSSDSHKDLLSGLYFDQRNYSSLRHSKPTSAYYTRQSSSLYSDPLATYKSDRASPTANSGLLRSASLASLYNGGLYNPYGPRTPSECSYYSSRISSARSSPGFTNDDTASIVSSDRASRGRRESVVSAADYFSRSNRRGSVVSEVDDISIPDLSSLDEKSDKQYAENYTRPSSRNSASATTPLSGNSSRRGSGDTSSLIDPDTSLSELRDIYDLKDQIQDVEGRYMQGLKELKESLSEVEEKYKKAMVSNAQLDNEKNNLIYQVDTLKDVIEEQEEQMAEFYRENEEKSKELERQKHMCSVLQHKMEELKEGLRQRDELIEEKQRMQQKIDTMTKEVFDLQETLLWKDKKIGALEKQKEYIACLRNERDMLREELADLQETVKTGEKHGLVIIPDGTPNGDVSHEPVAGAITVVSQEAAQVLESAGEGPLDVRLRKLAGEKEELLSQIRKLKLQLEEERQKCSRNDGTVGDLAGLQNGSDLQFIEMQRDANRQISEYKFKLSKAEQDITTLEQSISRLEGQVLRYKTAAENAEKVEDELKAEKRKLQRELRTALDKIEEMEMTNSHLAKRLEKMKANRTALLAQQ
UniProt O75608: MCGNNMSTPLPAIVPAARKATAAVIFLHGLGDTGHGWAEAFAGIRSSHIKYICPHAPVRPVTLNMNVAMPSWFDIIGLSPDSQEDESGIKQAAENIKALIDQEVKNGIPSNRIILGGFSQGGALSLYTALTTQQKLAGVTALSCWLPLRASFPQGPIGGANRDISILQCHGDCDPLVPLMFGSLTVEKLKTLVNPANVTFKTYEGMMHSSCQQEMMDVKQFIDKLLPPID
UniProt P62310: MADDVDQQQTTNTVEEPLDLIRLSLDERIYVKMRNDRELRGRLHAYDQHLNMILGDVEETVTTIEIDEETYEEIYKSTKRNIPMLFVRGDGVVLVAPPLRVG
UniProt O95777: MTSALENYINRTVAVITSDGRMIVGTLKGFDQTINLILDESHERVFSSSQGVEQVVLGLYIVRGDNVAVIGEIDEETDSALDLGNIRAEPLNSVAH
UniProt P78559: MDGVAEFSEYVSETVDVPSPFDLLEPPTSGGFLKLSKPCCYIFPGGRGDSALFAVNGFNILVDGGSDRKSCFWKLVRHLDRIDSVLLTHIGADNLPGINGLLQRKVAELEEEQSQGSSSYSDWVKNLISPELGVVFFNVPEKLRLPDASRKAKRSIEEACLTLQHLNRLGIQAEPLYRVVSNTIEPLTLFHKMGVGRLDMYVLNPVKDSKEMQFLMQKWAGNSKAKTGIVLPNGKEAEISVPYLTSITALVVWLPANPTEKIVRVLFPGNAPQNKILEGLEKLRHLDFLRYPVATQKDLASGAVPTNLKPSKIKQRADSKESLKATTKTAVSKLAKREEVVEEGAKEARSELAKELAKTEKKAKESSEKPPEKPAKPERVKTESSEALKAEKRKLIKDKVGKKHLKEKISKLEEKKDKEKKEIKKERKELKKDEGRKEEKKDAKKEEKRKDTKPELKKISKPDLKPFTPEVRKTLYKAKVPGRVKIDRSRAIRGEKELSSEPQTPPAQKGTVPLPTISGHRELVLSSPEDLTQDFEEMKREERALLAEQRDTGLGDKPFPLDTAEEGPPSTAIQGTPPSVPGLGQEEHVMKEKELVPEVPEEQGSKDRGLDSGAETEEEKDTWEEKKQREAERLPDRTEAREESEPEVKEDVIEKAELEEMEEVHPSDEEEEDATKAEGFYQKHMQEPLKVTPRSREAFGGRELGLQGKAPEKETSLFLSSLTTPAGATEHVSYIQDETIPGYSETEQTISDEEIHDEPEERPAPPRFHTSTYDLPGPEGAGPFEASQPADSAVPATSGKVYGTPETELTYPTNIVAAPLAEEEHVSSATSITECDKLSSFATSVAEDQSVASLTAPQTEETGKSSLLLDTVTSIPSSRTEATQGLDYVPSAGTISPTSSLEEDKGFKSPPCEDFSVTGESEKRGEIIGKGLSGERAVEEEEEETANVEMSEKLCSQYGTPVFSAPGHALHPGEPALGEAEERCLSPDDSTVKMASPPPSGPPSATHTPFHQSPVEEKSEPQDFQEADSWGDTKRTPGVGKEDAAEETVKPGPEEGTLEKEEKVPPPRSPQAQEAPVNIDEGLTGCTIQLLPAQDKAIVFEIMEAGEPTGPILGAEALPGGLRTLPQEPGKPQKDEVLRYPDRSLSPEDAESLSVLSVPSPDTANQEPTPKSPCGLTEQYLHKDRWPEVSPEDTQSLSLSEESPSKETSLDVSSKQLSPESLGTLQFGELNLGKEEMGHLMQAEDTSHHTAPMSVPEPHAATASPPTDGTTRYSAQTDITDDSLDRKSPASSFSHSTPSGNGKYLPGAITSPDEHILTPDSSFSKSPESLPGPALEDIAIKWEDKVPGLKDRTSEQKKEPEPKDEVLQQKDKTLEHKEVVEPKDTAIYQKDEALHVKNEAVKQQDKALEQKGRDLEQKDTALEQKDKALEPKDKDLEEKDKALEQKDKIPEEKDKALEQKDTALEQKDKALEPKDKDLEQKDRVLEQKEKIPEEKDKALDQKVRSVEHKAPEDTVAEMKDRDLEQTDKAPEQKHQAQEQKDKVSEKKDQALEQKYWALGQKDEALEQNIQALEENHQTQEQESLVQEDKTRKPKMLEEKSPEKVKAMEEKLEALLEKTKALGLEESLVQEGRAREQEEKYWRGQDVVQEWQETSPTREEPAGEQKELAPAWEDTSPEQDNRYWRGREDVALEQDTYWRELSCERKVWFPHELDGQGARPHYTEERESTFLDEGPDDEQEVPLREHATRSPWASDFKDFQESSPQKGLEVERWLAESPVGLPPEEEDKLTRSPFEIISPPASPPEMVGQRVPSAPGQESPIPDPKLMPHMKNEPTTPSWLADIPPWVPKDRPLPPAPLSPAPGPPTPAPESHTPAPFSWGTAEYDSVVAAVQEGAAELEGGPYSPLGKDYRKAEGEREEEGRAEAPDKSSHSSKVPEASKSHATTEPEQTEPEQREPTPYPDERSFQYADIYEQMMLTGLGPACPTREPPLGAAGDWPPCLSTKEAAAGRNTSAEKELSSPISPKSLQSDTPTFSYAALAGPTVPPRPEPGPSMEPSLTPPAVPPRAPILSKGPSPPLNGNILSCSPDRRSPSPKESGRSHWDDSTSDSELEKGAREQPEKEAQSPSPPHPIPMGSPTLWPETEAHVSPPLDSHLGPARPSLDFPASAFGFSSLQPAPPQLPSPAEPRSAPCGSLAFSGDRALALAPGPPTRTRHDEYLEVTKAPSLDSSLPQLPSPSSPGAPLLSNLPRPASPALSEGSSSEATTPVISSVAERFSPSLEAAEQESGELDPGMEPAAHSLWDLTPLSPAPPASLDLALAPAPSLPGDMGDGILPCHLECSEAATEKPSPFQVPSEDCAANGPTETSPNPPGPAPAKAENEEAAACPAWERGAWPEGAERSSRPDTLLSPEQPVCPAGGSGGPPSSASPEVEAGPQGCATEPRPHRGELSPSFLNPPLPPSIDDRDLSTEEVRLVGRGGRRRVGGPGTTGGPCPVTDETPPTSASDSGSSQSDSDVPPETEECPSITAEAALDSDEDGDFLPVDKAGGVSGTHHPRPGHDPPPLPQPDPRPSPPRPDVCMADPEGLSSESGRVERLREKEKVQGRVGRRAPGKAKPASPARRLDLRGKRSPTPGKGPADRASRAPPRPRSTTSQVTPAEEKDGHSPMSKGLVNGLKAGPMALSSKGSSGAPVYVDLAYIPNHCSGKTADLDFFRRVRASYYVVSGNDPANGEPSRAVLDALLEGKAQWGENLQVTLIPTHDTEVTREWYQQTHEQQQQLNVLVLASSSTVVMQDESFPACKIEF
UniProt Q5U5X0: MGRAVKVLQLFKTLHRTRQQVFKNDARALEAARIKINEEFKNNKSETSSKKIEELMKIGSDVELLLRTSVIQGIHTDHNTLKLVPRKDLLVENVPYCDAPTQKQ
UniProt Q7Z3D4: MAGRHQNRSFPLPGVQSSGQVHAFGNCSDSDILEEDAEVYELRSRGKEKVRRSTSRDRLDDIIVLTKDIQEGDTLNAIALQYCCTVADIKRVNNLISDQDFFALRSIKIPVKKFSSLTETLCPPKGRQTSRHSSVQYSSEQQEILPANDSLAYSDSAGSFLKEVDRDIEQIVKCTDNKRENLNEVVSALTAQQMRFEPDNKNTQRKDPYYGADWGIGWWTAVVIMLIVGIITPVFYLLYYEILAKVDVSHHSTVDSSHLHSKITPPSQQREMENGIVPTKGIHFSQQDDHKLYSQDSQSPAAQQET
UniProt Q15691: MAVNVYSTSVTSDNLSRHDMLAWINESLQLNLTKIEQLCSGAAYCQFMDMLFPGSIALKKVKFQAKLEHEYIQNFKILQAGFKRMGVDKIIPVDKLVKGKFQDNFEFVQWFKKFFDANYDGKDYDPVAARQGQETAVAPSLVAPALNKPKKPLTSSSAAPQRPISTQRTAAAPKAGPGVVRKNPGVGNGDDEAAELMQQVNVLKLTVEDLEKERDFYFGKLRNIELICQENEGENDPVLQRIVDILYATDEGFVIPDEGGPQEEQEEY

ibrutinib = compound: C=CC(=O)N1CCC[C@@H](n2nc(-c3ccc(Oc4ccccc4)cc3)c3c(N)ncnc32)C1 [ibrutinib]
How it was run: as §1

[1] = compound: CC(=O)c1cnc2ccc(-c3cc(Cl)c(O)c(Cl)c3)nc2c1N[C@H]1CC[C@H](CN(C)C)CC1
How it was run: as §1

ralimetinib = compound: CC(C)(C)Cn1c(N)nc2ccc(-c3[nH]c(C(C)(C)C)nc3-c3ccc(F)cc3)nc21 [ralimetinib]
How it was run: as §1

[2] = compound: CC(C)(O)CC(=O)NCCn1ccc2ncnc(Nc3ccc(Oc4cccc(C(F)(F)F)c4)c(Cl)c3)c21
How it was run: as §1

[3] = compound: CC(C)C1=C2N=C(C=C(N2N=C1)NCC3=CC=CC=C3)NCCCCCCN
How it was run: as §1

[4] = compound: CC(C)C[C@@H](C=O)NC(=O)[C@H](CC(C)C)NC(=O)[C@H](CC(C)C)NC(=O)OCc1ccccc1
How it was run: as §1

pinometostat = compound: CC(C)N(C[C@H]1O[C@@H](n2cnc3c(N)ncnc32)[C@H](O)[C@@H]1O)[C@H]1C[C@@H](CCc2nc3cc(C(C)(C)C)ccc3[nH]2)C1 [pinometostat]
How it was run: as §1

[5] = compound: CC1=C(C(CC(=O)N1)C2=CC=C(C=C2)C(F)(F)F)C(=O)NC3=C(C=C4C(=C3)C=NN4)F
How it was run: as §1

[6] = compound: CC1=C(C2=C(C=C1)C(=O)C3=CC=CC=C3N2CCCN)C
How it was run: as §1

[7] = compound: CC1=C(C=C(C=C1)NC(=O)C2=CC(=CC=C2)C(C)(C)C#N)NC3=CC4=C(C=C3)N=CN(C4=O)C
How it was run: as §1

[8] = compound: CC1=C(C=C(C=C1)NC(=O)C2=CC(=CC=C2)N(C)C)NC(=O)C3=CC=C(C=C3)O
How it was run: as §1

[9] = compound: CC1=CC=C(C=C1)SC2=C3C=C(SC3=CN=C2)C(=O)N
How it was run: as §1

[10] = compound: CC1=NC(=CC=C1)C2=C(N=C(N2)C(C)(C)C)C3=CC4=NC=CN=C4C=C3
How it was run: as §1

Nexturastat A = compound: CCCCN(Cc1ccc(C(=O)NO)cc1)C(=O)Nc1ccccc1 [Nexturastat A]
How it was run: as §1

vemurafenib = compound: CCCS(=O)(=O)Nc1ccc(F)c(C(=O)c2c[nH]c3ncc(-c4ccc(Cl)cc4)cc23)c1F [vemurafenib]
How it was run: as §1

[11] = compound: CCCS(=O)(=O)Nc1ccc(F)c(C(=O)c2c[nH]c3ncc(Cl)cc23)c1F
How it was run: as §1

[12] = compound: CCCc1cc(C)[nH]c(=O)c1CNC(=O)c1cc(-c2ccnc(N3CCN(C)CC3)c2)cc2c1cnn2C(C)C
How it was run: as §1

givinostat = compound: CCN(CC)Cc1ccc2cc(COC(=O)Nc3ccc(C(=O)NO)cc3)ccc2c1 [givinostat]
How it was run: as §1

barasertib = compound: CCN(CCCOc1ccc2c(Nc3cc(CC(=O)Nc4cccc(F)c4)[nH]n3)ncnc2c1)CCOP(=O)(O)O [barasertib]
How it was run: as §1

Measured: log2 fold change

MAPK1 (UniProt P28482)
inactive: IRAK-1-4 Inhibitor I 0.029 | ibrutinib -0.022 | [1] 0.009 | ralimetinib -0.035 | [2] -0.025 | [3] 0.015 | [4] -0.023 | pinometostat -0.029 | [5] 0.017 | [6] -0.028 | [7] -0.013 | [8] -0.027 | [9] 0.024 | [10] 0.034 | Nexturastat A -0.06 | vemurafenib 0.012 | [11] 0.002 | [12] -0.013 | givinostat -0.027 | barasertib 0.006

MAPK3 (UniProt P27361)
inactive: IRAK-1-4 Inhibitor I 0.043 | ibrutinib 0.023 | [1] 0.019 | ralimetinib 0.029 | [2] -0.061 | [3] -0.006 | [4] -0.002 | pinometostat -0.011 | [5] -0.025 | [6] 0 | [7] 0.076 | [8] -0.042 | [9] 0.104 | [10] 0.099 | Nexturastat A -0.059 | vemurafenib 0.089 | [11] 0.116 | [12] 0.037 | givinostat -0.008 | barasertib -0.056

MACO1 (UniProt Q8N5G2)
inactive: IRAK-1-4 Inhibitor I -0.025 | ibrutinib 0.023 | [1] 0.012 | ralimetinib 0.052 | [2] -0.054 | [3] -0.104 | [4] 0.034 | pinometostat 0.064 | [5] -0.008 | [6] 0.147 | [7] -0.035 | [8] 0.009 | [9] 0.061 | [10] -0.005 | Nexturastat A 0.063 | vemurafenib -0.032 | [11] 0.056 | [12] -0.021 | givinostat 0.046 | barasertib 0.011

MACROD1 (UniProt Q9BQ69)
inactive: IRAK-1-4 Inhibitor I -0.11 | ibrutinib 0.029 | [1] -0.069 | ralimetinib 0.173 | [2] -0.221 | [3] -0.14 | [4] -0.029 | pinometostat -0.019 | [5] -0.06 | [6] 0.144 | [7] 0.059 | [8] -0.066 | [9] -0.071 | [10] 0.071 | Nexturastat A -0.069 | vemurafenib -0.07 | [11] 0.114 | [12] 0.077 | givinostat 0.131 | barasertib 0.16

Quoted from above (2 entries):
MAPK1 (UniProt P28482)
inactive: IRAK-1-4 Inhibitor I 0.029 | ibrutinib -0.022 | [1] 0.009 | ralimetinib -0.035 | [2] -0.025 | [3] 0.015 | [4] -0.023 | pinometostat -0.029 | [5] 0.017 | [6] -0.028 | [7] -0.013 | [8] -0.027 | [9] 0.024 | [10] 0.034 | Nexturastat A -0.06 | vemurafenib 0.012 | [11] 0.002 | [12] -0.013 | givinostat -0.027 | barasertib 0.006

MAPK3 (UniProt P27361)
inactive: IRAK-1-4 Inhibitor I 0.043 | ibrutinib 0.023 | [1] 0.019 | ralimetinib 0.029 | [2] -0.061 | [3] -0.006 | [4] -0.002 | pinometostat -0.011 | [5] -0.025 | [6] 0 | [7] 0.076 | [8] -0.042 | [9] 0.104 | [10] 0.099 | Nexturastat A -0.059 | vemurafenib 0.089 | [11] 0.116 | [12] 0.037 | givinostat -0.008 | barasertib -0.056

(further entries)

MAN2C1 isoform 4 (UniProt Q9NTJ4)
inactive: IRAK-1-4 Inhibitor I -0.004 | ibrutinib -0.043 | [1] -0.037 | ralimetinib -0.04 | [2] -0.015 | [3] 0.111 | [4] -0.02 | pinometostat 0.004 | [5] 0.208 | [6] 0.026 | [7] 0.024 | [8] 0.043 | [9] -0.01 | [10] -0.038 | Nexturastat A -0.062 | vemurafenib -0.043 | [11] -0.054 | [12] -0.13 | givinostat -0.014 | barasertib 0.016

LSM7 (UniProt Q9UK45)
inactive: IRAK-1-4 Inhibitor I 0.068 | ibrutinib -0.118 | [1] 0.008 | ralimetinib -0.113 | [2] -0.024 | [3] 0.039 | [4] 0.001 | pinometostat -0.045 | [5] 0.038 | [6] 0.032 | [7] -0.016 | [8] 0.006 | [9] 0.078 | [10] -0.008 | Nexturastat A -0.073 | vemurafenib -0.026 | [11] -0.025 | [12] -0.049 | givinostat 0.022 | barasertib 0.004

LRRFIP2 (UniProt Q9Y608)
inactive: IRAK-1-4 Inhibitor I 0.008 | ibrutinib 0.005 | [1] 0.014 | ralimetinib 0.001 | [2] -0.022 | [3] 0.041 | [4] 0.018 | pinometostat -0.05 | [5] 0.027 | [6] -0.025 | [7] -0.04 | [8] -0.035 | [9] -0.036 | [10] 0.015 | Nexturastat A -0.004 | vemurafenib -0.031 | [11] -0.027 | [12] 0.016 | givinostat -0.011 | barasertib 0.008

MACF1 (UniProt Q9UPN3)
inactive: IRAK-1-4 Inhibitor I -0.1 | ibrutinib -0.044 | [1] -0.078 | ralimetinib 0.132 | [2] 0.004 | [3] -0.212 | [4] 0.099 | pinometostat 0.16 | [5] -0.024 | [6] -0.009 | [7] 0.048 | [8] -0.028 | [9] -0.02 | [10] -0.028 | Nexturastat A 0.185 | vemurafenib 0.023 | [11] 0.029 | [12] 0.087 | givinostat 0.043 | barasertib -0.007

LYPLA1 (UniProt O75608)
inactive: IRAK-1-4 Inhibitor I 0.022 | ibrutinib -0.005 | [1] -0.009 | ralimetinib -0.134 | [2] -0.045 | [3] 0.006 | [4] -0.105 | pinometostat -0.065 | [5] -0.005 | [6] 0.125 | [7] -0.079 | [8] -0.07 | [9] 0.032 | [10] 0.049 | Nexturastat A -0.023 | vemurafenib -0.085 | [11] 0.014 | [12] -0.025 | givinostat -0.08 | barasertib 0.036

MAK16 (UniProt Q9BXY0)
inactive: IRAK-1-4 Inhibitor I -0.319 | ibrutinib -0.016 | [1] 0.064 | ralimetinib 0.086 | [2] 0.069 | [3] -0.07 | [4] 0.004 | pinometostat 0.068 | [5] -0.011 | [6] -0.073 | [7] 0.042 | [8] -0.005 | [9] -0.001 | [10] -0.044 | Nexturastat A 0.044 | vemurafenib -0.049 | [11] 0.007 | [12] 0.016 | givinostat -0.098 | barasertib -0.099

LSM3 (UniProt P62310)
inactive: IRAK-1-4 Inhibitor I 0.09 | ibrutinib -0.002 | [1] -0.039 | ralimetinib 0.023 | [2] 0.04 | [3] 0.064 | [4] -0.01 | pinometostat -0.051 | [5] 0.029 | [6] 0.065 | [7] -0.044 | [8] -0.027 | [9] 0.035 | [10] 0.045 | Nexturastat A 0.025 | vemurafenib 0.039 | [11] -0.045 | [12] -0.046 | givinostat -0.03 | barasertib 0.029

LSM8 (UniProt O95777)
inactive: IRAK-1-4 Inhibitor I 0.008 | ibrutinib -0.017 | [1] -0.028 | ralimetinib -0.061 | [2] 0.019 | [3] 0.06 | [4] -0.012 | pinometostat -0.07 | [5] -0.008 | [6] 0.035 | [7] -0.025 | [8] 0.021 | [9] -0.021 | [10] 0.011 | Nexturastat A -0.076 | vemurafenib -0.011 | [11] -0.017 | [12] -0.048 | givinostat -0.019 | barasertib -0.004

MAP1A isoform 2 (UniProt P78559)
inactive: IRAK-1-4 Inhibitor I -0.066 | ibrutinib -0.038 | [1] 0.075 | ralimetinib 0.118 | [2] 0.019 | [3] -0.108 | [4] 0.048 | pinometostat 0.182 | [5] 0.004 | [6] -0.084 | [7] -0.035 | [8] -0.013 | [9] -0.02 | [10] -0.008 | Nexturastat A 0.142 | vemurafenib -0.059 | [11] -0.043 | [12] 0.064 | givinostat 0.057 | barasertib -0.034

LYRM7 (UniProt Q5U5X0)
inactive: IRAK-1-4 Inhibitor I 0.011 | ibrutinib -0.006 | [1] -0.003 | ralimetinib 0.037 | [2] 0.021 | [3] -0.094 | [4] -0.009 | pinometostat 0.045 | [5] -0.014 | [6] 0.039 | [7] 0.028 | [8] 0.035 | [9] 0.013 | [10] -0.057 | Nexturastat A -0.057 | vemurafenib -0.009 | [11] -0.002 | [12] -0.012 | givinostat -0.025 | barasertib 0.001

LYSMD3 (UniProt Q7Z3D4)
inactive: IRAK-1-4 Inhibitor I -0.006 | ibrutinib 0.047 | [1] 0.047 | ralimetinib -0.179 | [2] 0.189 | [3] 0.129 | [4] 0.069 | pinometostat 0.006 | [5] 0.043 | [6] 0.055 | [7] 0.008 | [8] 0.034 | [9] 0.052 | [10] -0.003 | Nexturastat A -0.091 | vemurafenib -0.007 | [11] 0.19 | [12] -0.062 | givinostat -0.031 | barasertib -0.038

MAPRE1 (UniProt Q15691)
inactive: IRAK-1-4 Inhibitor I 0.034 | ibrutinib -0.037 | [1] -0.011 | ralimetinib -0.023 | [2] -0.028 | [3] -0.044 | [4] 0.016 | pinometostat -0.009 | [5] -0.013 | [6] 0.018 | [7] 0.017 | [8] -0.03 | [9] 0.016 | [10] 0.091 | Nexturastat A -0.135 | vemurafenib 0.022 | [11] 0.025 | [12] 0.067 | givinostat -0.024 | barasertib 0.048

Source: the supplement of paper PMC10849652
